Values from PubChem BioAssay AID602196 (INSERM, 2012).

Test: 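Knock-downs that protect lung cancer cells from cisplatin or sensitise them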
Cells: human A549 lung cancer cells
Knock-down reagent: siRNA pair against human genes
Duration: 48 h transfection before cisplatin; time from cisplatin to read-out not stated
Treatment: cisplatin at a dose killing half of control-siRNA cells; exact dose and duration not given
Detection: 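Cisplatin cell death as a shift from the 50% death seen with control siRNA; siRNAs toxic or growth-blocking alone scored 0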
Reading the numbers: two-siRNA summed score (-2 to +2): higher = both siRNAs protect from cisplatin killing; -2 means both sensitise; mean protection from cisplatin (shift in death) and protection from cisplatin (shift in death), siRNA C and protection from cisplatin (shift in death), siRNA D: higher = protection from cisplatin killing
Rule for the call: 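siRNAs harmful alone (LDH or WST-1) get 0; others get +1 for less and -1 for more cisplatin killing; genes are active when the two siRNAs give the same sign, summing to ±2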
Calls: active = both siRNAs shift cisplatin killing the same way; inactive = no consistent shift, or siRNA harmful alone
Shown is one part, drawn at random, of about 23,000 reagents. Of all reagents, 455 (2%) got an active call. 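Active includes both protection and sensitisation; some change values fall well beyond the stated -50 to +50 range.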 Reagent sequences are not shown. The record does not give: the amount of reagent.

| gene | two-siRNA summed score (-2 to +2) | mean protection from cisplatin (shift in death) (%) | protection from cisplatin (shift in death), siRNA C (%) | protection from cisplatin (shift in death), siRNA D (%) | Outcome |
| --- | --- | --- | --- | --- | --- |
| LGSN (lengsin, lens protein with glutamine synthetase domain) | 0 | 8.1 | 10.9 | 5.4 | inactive |
| DNAJC5G (DnaJ heat shock protein family (Hsp40) member C5 gamma) | 0 | 5.3 | 3.8 | 6.9 | inactive |
| MCCC1 (methylcrotonyl-CoA carboxylase subunit 1) | 0 | 0.6 | -14.3 | 15.6 | inactive |
| QTGAL (queuosine-tRNA galactosyltransferase) | 0 | 5.7 | 9.1 | 2.2 | inactive |
| ZNF10 (zinc finger protein 10) | 2 | 12.3 | 16.8 | 7.8 | active |
| UTP3 (UTP3 small subunit processome component) | 0 | 4.4 | 1.6 | 7.2 | inactive |
| LOC388551 | 0 | 6.9 | 15.6 | -1.7 | inactive |
| TNFSF14 (TNF superfamily member 14) | 0 | 0.4 | -5.9 | 6.6 | inactive |
| CCDC93 (CCC complex scaffolding subunit CCDC93) | 0 | 10.6 | 12.5 | 8.6 | inactive |
| PHACTR1 (phosphatase and actin regulator 1) | 0 | 10.2 | 9.7 | 10.7 | inactive |
| STIP1 (stress induced phosphoprotein 1) | -1 | 1.1 | -8.2 | 10.3 | inactive |
| PDZD11 (PDZ domain containing 11) | 0 | 13.2 | 21.2 | 5.1 | inactive |
| NT5C1A (5'-nucleotidase, cytosolic IA) | -1 | -8.3 | 3.3 | -19.9 | inactive |
| PI4K2B (phosphatidylinositol 4-kinase type 2 beta) | 1 | 3.3 | -5.1 | 11.6 | inactive |
| ELF5 (E74 like ETS transcription factor 5) | 0 | 5.5 | 2.3 | 8.6 | inactive |
| LOC388312 | 2 | 21.4 | 23.8 | 19.1 | active |
| FLJ37201 (tigger transposable element derived 2 pseudogene) | 0 | 9.8 | 12.5 | 7.2 | inactive |
| CFC1 (cryptic, EGF-CFC family member 1) | -1 | -10.6 | -18.8 | -2.4 | inactive |
| SPRYD4 (SPRY domain containing 4) | 0 | -5 | 4.3 | -14.4 | inactive |
| LOC441161 | 1 | 11.5 | 4.1 | 18.8 | inactive |
| LOC440261 | 0 | 14.5 | 11.6 | 17.4 | inactive |
| LOC130773 | 0 | 3.3 | 0.3 | 6.2 | inactive |
| LOC442203 | 0 | 23.8 | 31.7 | 15.9 | inactive |
| ZNF385A (zinc finger protein 385A) | 0 | 0.1 | -3.1 | 3.3 | inactive |
| SLC23A2 | 0 | 7.5 | -3.4 | 18.5 | inactive |
| RBSN (rabenosyn, RAB effector) | 0 | -6.8 | -11.3 | -2.4 | inactive |
| MSR1 (macrophage scavenger receptor 1) | 0 | -10.9 | -14.5 | -7.3 | inactive |
| MED26 (mediator complex subunit 26) | -1 | -13.9 | 4.6 | -32.3 | inactive |
| HGF (hepatocyte growth factor) | 0 | 7.7 | 8.8 | 6.7 | inactive |
| LOC440677 | 0 | 17.8 | 12.7 | 23 | inactive |
| SCRN1 (secernin 1) | 1 | 8.7 | 4.9 | 12.4 | inactive |
| SERINC5 (serine incorporator 5) | 0 | 6.2 | 4.1 | 8.3 | inactive |
| SOX13 (SRY-box transcription factor 13) | 0 | 5 | 1.1 | 8.9 | inactive |
| ZNF146 (zinc finger protein 146) | 0 | 6 | 2.5 | 9.5 | inactive |
| C11orf42 (chromosome 11 open reading frame 42) | 0 | -7.2 | -27.8 | 13.4 | inactive |
| TWF2 (twinfilin actin binding protein 2) | 0 | 1.4 | -6.8 | 9.6 | inactive |
| LOC400953 | 0 | 7 | 10.2 | 3.7 | inactive |
| HDAC1 (histone deacetylase 1) | -1 | -20.9 | -28.7 | -13 | inactive |
| PRLR (prolactin receptor) | 0 | -6.7 | -24.5 | 11 | inactive |
| CETN3 (centrin 3) | 1 | 6.6 | 11.7 | 1.6 | inactive |
| HBP1 (HMG-box transcription factor 1) | 1 | 11.3 | 12.9 | 9.6 | inactive |
| BRF2 (BRF2 general transcription factor IIIB subunit) | 0 | -6.6 | 0.3 | -13.6 | inactive |
| DUSP6 (dual specificity phosphatase 6) | 0 | 2.5 | 12.8 | -7.9 | inactive |
| OR51A4 (olfactory receptor family 51 subfamily A member 4) | 0 | 6.9 | 7.8 | 5.9 | inactive |

Only “protection from cisplatin (shift in death), siRNA D (%)” (5 entries from above):
NT5C1A (5'-nucleotidase, cytosolic IA): -19.9
PI4K2B (phosphatidylinositol 4-kinase type 2 beta): 11.6
ELF5 (E74 like ETS transcription factor 5): 8.6
LOC388312: 19.1
FLJ37201 (tigger transposable element derived 2 pseudogene): 7.2
